These are yes or no findings as the source states them, for the method shown. Binding seen in cells or lysates may run through a third protein. Some binding calls cover weakened binding; strength is not graded here.

Chains of the proteins cited; added tags and fusions are not shown.
UniProt P70452: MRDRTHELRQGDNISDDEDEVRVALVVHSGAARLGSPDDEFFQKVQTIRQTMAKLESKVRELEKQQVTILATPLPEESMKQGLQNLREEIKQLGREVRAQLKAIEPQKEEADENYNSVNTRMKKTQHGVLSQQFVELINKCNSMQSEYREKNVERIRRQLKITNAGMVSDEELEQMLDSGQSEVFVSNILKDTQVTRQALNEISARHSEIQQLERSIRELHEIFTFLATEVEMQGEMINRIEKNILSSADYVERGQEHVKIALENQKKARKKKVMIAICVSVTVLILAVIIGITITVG

For this experiment, the target named is T1, tomosyn (syntaxin-1-binding protein 5, STXBP5) (mouse (endogenous in cultured cortical neurons)) (UniProt Q8K400).
T1 sequence: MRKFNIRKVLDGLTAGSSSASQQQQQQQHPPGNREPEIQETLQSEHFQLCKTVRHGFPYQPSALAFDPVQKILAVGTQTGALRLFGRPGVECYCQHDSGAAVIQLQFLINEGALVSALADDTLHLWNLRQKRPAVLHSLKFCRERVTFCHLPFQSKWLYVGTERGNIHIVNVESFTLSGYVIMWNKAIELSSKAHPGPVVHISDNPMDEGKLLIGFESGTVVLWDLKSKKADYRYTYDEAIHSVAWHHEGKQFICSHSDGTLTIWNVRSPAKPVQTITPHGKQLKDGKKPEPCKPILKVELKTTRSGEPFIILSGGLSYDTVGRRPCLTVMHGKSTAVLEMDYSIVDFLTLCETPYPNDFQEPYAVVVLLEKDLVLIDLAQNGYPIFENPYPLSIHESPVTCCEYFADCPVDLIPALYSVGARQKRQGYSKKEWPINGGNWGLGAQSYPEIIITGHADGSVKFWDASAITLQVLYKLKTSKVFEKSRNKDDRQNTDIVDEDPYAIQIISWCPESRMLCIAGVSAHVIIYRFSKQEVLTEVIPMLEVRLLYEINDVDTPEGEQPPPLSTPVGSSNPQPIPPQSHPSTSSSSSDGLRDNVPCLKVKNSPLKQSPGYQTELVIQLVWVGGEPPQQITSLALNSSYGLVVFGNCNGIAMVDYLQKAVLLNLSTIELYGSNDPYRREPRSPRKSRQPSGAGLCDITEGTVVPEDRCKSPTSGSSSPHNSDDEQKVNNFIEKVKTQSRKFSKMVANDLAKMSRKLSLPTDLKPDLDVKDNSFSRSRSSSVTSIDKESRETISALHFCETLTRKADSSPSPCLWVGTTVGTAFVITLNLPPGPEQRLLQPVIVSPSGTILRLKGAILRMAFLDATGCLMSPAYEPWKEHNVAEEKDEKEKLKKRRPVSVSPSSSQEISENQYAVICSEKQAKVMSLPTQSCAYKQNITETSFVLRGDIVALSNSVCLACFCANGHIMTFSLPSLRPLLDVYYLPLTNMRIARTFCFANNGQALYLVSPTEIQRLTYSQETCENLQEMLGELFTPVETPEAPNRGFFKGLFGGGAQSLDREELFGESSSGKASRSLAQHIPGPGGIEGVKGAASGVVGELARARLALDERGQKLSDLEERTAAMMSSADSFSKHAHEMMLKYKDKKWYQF
The experiment in a line: co-IP.

syntaxin-4 (from UniProt P70452 1-298): the binding result is listed as “binds”.

Values taken from doi:10.1101/617845.
